Assay results from PubChem BioAssay AID1487 (National Center for Advancing Translational Sciences (NCATS), 2009).
The list shows a part of the results. Further columns of the screen follow, without active or inactive calls. The list favours compounds with an active or inconclusive main result. The note in brackets gives the kind of curve behind each potency; many fits are weak.

Test: qHTS Assay for Modulators of Lamin A Splicing
Conditions: HeLa LMNA splicing GFP/RFP minigene ratio, 48 h
How it was run: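 S3 HeLa cells stably expressing lamin A-EGFP splicing minigene plus DsRed2, 600 cells/well, 48 h compound exposure at 37C. Laser-scanning cytometry; analysed as GFP (500-530 nm)/RFP (575-640 nm) total intensity ratio; 0.5% DMSO vehicle.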

[1] = measured here: RFP viability control channel
[2] = measured here: GFP splicing reporter channel

| Structure (SMILES) | AC50 [1] | AC50 [2] |
| --- | --- | --- |
| OC(CSc1c(Cl)cccc1Cl)CN1CCN(c2ccc(F)cc2)CC1 (stereo unspecified) | 35.5 µM [rising, single point] |  |
| COc1cccc2nc3cc(C)c(C)cc3nc12 | 1.26 µM [rising, partial curve] |  |
| COC(=O)CN1C(c2cccc(Cl)c2)=Nc2ccc(Cl)cc2C1c1ccccc1 (stereo unspecified) | 11.2 µM [rising, partial curve] |  |
| COc1cc2c(cc1NC(=O)C(C)Sc1cccc[n+]1[O-])oc1ccccc12 (stereo unspecified) |  | 35.5 µM [rising, single point] |
| Cc1ccsc1S(=O)(=O)N1CCCC(CCC(=O)NCc2ccccc2F)C1 (stereo unspecified) | 17.8 µM [falling, partial curve, poor fit] |  |
| O=C(Cn1c(C(F)(F)F)nc2ccccc21)N=Nc1c(O)[nH]c2ccc(Br)cc12 | 20 µM [falling, partial curve] | 20 µM [falling, partial curve] |
| Cc1ccc(NC(=O)c2cc3c(s2)CCCC3)cc1 |  | 35.5 µM [falling, single point] |
| CCOc1cccc(OCCOc2ccc(C(=O)c3ccccc3)cc2)c1 | 35.5 µM [rising, single point] | 17.8 µM [rising, single point] |
| O=C(Nc1ccc(Oc2ccccc2)cc1)C1CCCO1 (stereo unspecified) |  | 35.5 µM [rising, single point] |
| COc1ccc(S(=O)(=O)Nc2ccccc2C(=O)Nc2nc(-c3ccc(F)cc3)cs2)cc1OC | 5.01 µM [rising, full curve] |  |
| CC(=O)Nc1ccc(OS(=O)(=O)c2c(C)cc(C)cc2C)cc1 | 31.6 µM [rising, single point] | 35.5 µM [rising, single point] |
| Cc1ncc(C[n+]2csc(CCO)c2C)c(N)n1 | 0.316 µM [rising, single point] | 0.00501 µM [falling, full curve, poor fit] |
| CCOC(=O)c1cnc2nc[nH]n2c1=O | 0.00501 µM [falling, full curve, poor fit] | 0.00501 µM [falling, full curve, poor fit] |
| Cc1ccsc1-c1n[nH]c(=S)n1CC(C)C | 0.0891 µM [rising, full curve, poor fit] |  |
| CN(Cc1ccco1)C(=O)Cn1c(=O)oc2cc(S(=O)(=O)NCc3ccccc3)ccc21 | 22.4 µM [rising, partial curve, poor fit] |  |
| CCOc1ccc(C(=O)N(CN2CCCC2=O)c2ccc(C)cc2)cc1 | 15.8 µM [rising, single point] |  |
| CC(=O)OCC(=O)[C@@]1(O)CC[C@H]2[C@@H]3CCC4=CC(=O)CC[C@]4(C)[C@H]3[C@@H](O)C[C@@]21C | 0.0316 µM [falling, full curve] | 0.0708 µM [falling, full curve, poor fit] |
| Cn1c(CNC2CCCCC2)nc2ccccc21 | 0.316 µM [falling, full curve] |  |
| CCOc1ccc(CN(C)CC(=O)Nc2cccc(C)c2)cc1OC |  | 11.2 µM [falling, single point] |

An excerpt of the results above:

| Structure (SMILES) | AC50 [1] | AC50 [2] |
| --- | --- | --- |
| Cc1ncc(C[n+]2csc(CCO)c2C)c(N)n1 | 0.316 µM [rising, single point] | 0.00501 µM [falling, full curve, poor fit] |
| CCOC(=O)c1cnc2nc[nH]n2c1=O | 0.00501 µM [falling, full curve, poor fit] | 0.00501 µM [falling, full curve, poor fit] |
| Cc1ccsc1-c1n[nH]c(=S)n1CC(C)C | 0.0891 µM [rising, full curve, poor fit] |  |

The list continues:

| Structure (SMILES) | AC50 [1] | AC50 [2] |
| --- | --- | --- |
| O=C(c1ccccc1)c1cccn1CC(=O)N1CCN(c2ccc(F)cc2)CC1 | 0.398 µM [falling, full curve, poor fit] |  |
| CCCn1c(SCC#N)nc2c(c1=O)C1(CCCC1)Cc1ccccc1-2 | 35.5 µM [rising, single point] | 35.5 µM [rising, single point] |
| Clc1ccc(-n2nnnc2-c2ccccc2)cc1 | 12.6 µM [rising, partial curve] |  |
| Clc1ccc(Nc2ncnc3ccc(Br)cc23)cc1 | 15.8 µM [rising, partial curve] | 7.94 µM [rising, partial curve, poor fit] |
| Cc1cc(C=C2C(=O)c3ccccc3C2=O)c(C)n1-c1ccccc1 | 35.5 µM [falling, single point] | 35.5 µM [falling, single point] |
| COc1ccc(-c2cnnc(N/N=C/c3ccc(O)c(OC)c3)n2)cc1 | 10 µM [rising, single point] |  |
| CCOC(=O)NC(NCc1ccccc1)(C(F)(F)F)C(F)(F)F |  | 35.5 µM [falling, single point] |
| CCOc1cc(/C=C2\C(=O)N(c3ccc(C(N)=O)cc3)N=C2C)ccc1OC(=O)c1cccs1 | 22.4 µM [falling, partial curve, poor fit] | 14.1 µM [falling, single point] |
| CC(Nc1ncnc2c1cnn2-c1cccc(Cl)c1)c1ccccc1 (stereo unspecified) | 25.1 µM [falling, single point] | 12.6 µM [falling, partial curve] |
| COc1ccc(CSCCNC(=S)Nc2ccccc2)cc1Cl |  | 1.26 µM [falling, full curve, poor fit] |
| Cc1cc(NC(=O)c2ccccc2F)n(C(C)(C)C)n1 |  | 0.0631 µM [rising, full curve, poor fit] |
| Cc1cc(C(=O)OCC(=O)N2CC(=O)Nc3ccccc32)c(C)n1-c1ccccc1 | 35.5 µM [rising, single point] | 31.6 µM [rising, single point] |
| O=C(Oc1ccc2c(=O)c(Oc3ccc4ccccc4c3)coc2c1)c1cccnc1 | 20 µM [rising, single point] |  |
| O=[N+]([O-])c1ccc(N2CCN(S(=O)(=O)Cc3ccccc3)CC2)cc1N1CCOCC1 | 35.5 µM [rising, single point] |  |
| CCCc1cc(C(N)=S)ccn1 | 0.794 µM [falling, single point] | 35.5 µM [falling, single point] |
| Cc1ccc(F)cc1NC(=O)C1CC(=O)N(CCc2ccccc2)C1 (stereo unspecified) | 3.98 µM [falling, full curve] |  |
| c1ccc(-c2nc(NCc3ccco3)c3ccccc3n2)nc1 | 31.6 µM [rising, single point] |  |
| Cc1ccccc1OS(=O)(=O)c1cn(C)c(=O)n(C)c1=O | 0.126 µM [rising, full curve, poor fit] | 0.398 µM [rising, full curve, poor fit] |
